At least one compound was matched to its structure with a doubt left.
Tested on: TG32B mice
Assay: Effect on human IgG catabolism in TG32B mice (serum hIgG by Fc-specific ELISA)
Type: in vivo
Details: 500 mg/kg hIgG iv at t=0, 2.5 mg/kg peptide iv at 24, 48, 72, 96 h
[1] = Time 24 h (baseline, sample prior to first peptide injection)

SMILES | hIgG in serum, % 24 hr levels [1] [%] | hIgG in serum, % 24 hr levels (Time 30 h) [%] | hIgG in serum, % 24 hr levels (Time 48 h) [%] | hIgG in serum, % 24 hr levels (Time 72 h) [%] | hIgG in serum, % 24 hr levels (Time 96 h) [%] | hIgG in serum, % 24 hr levels (Time 120 h) [%] | hIgG in serum, % 24 hr levels (Time 168 h) [%]
CC(C)C[C@H]1C(=O)N[C@@H](Cc2ccc(O)cc2)C(=O)N2CCC[C@H]2C(=O)N[C@H](C(N)=O)CSSC(C)(C)[C@H](NC(=O)[C@H](Cc2ccccc2)NC(=O)[C@H](CCCNC(=N)N)NC(=O)CCC(=O)N[C@@H](CCCNC(=N)N)C(=O)N[C@@H](Cc2ccccc2)C(=O)N[C@@H]2C(=O)N[C@@H]([C@@H](C)O)C(=O)NCC(=O)N[C@@H](Cc3c[nH]cn3)C(=O)N[C@@H](Cc3ccccc3)C(=O)NCC(=O)N(C)CC(=O)N(C)[C@@H](CC(C)C)C(=O)N[C@@H](Cc3ccc(O)cc3)C(=O)N3CCC[C@H]3C(=O)N[C@H](C(N)=O)CSSC2(C)C)C(=O)N[C@@H]([C@@H](C)O)C(=O)NCC(=O)N[C@@H](Cc2c[nH]cn2)C(=O)N[C@@H](Cc2ccccc2)C(=O)NCC(=O)N(C)CC(=O)N1C [Peptide No. 283] | 100.0 | 62.5 | 40.7 | 24.2 | 14.4 | 9.8 | 7.1
CC(C)C[C@H]1C(=O)N[C@@H](Cc2ccc(O)cc2)C(=O)N2CCC[C@H]2C(=O)N[C@H](C(=O)N[C@@H](CCCCN)C(N)=O)CSSC(C)(C)[C@H](NC(=O)[C@H](Cc2ccccc2)NC(=O)[C@H](CCCNC(=N)N)NC(=O)CCC(=O)N[C@@H](CCCNC(=N)N)C(=O)N[C@@H](Cc2ccccc2)C(=O)N[C@@H]2C(=O)N[C@@H]([C@@H](C)O)C(=O)NCC(=O)N[C@@H](Cc3c[nH]cn3)C(=O)N[C@@H](Cc3ccccc3)C(=O)NCC(=O)N(C)CC(=O)N(C)[C@@H](CC(C)C)C(=O)N[C@@H](Cc3ccc(O)cc3)C(=O)N3CCC[C@H]3C(=O)N[C@H](C(=O)N[C@@H](CCCCN)C(N)=O)CSSC2(C)C)C(=O)N[C@@H]([C@@H](C)O)C(=O)NCC(=O)N[C@@H](Cc2c[nH]cn2)C(=O)N[C@@H](Cc2ccccc2)C(=O)NCC(=O)N(C)CC(=O)N1C [Peptide No. 310] | 100.0 | 53.1 | 42.9 | 26.1 | 17.7 | 11.6 | 9.3
